Experimental data: PubChem BioAssay AID1259405 (NCATS, 2018)
Aim: 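Mouse-designed siRNAs used to find CHO productivity engineering targets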 (primary screen). Cell system: Chinese hamster CHO-K1 ovary cells with stable secreted eGFP expression. Reagents: single siRNA against mouse genes, 0.8 pmol siRNA per well (2 µl of 400 nM stock). Timing: 3 days. Read-out: 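Percent of the per-plate non-targeting control median for intracellular GFP per well by laser scanning cytometry and for cell viability by ATP luminescence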. Reading the numbers: GFP, % of control: higher = more GFP per well, higher productivity; viability (ATP), % of control: higher = more viable cells (more ATP). Rule for the call: 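Called active when intracellular GFP, relative to negative control, is at or above 120%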.
This is an unselected part of about 50,000 deposited reagents. About 4,000 of all reagents (8%) count as active. 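Mouse siRNA library applied to hamster cells; one well for each siRNA.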 Entries without a mark were called inactive. Reagents against one gene are numbered here. No sequences are given here.

| gene symbol | siRNA no. | GFP, % of control | viability (ATP), % of control |
| --- | --- | --- | --- |
| Scx | 1 | 67.1 | 74.2 |
| Scx | 2 | 67.9 | 65.5 |
| Scx | 3 | 58.2 | 65 |
| Ptprm | 1 | 77.1 | 85.5 |
| Ptprm | 2 | 49.4 | 64.7 |
| Ptprm | 3 | 121 (active) | 90.5 |
| Cyrib | 1 | 77.8 | 106 |
| Cyrib | 2 | 144 (active) | 92.1 |
| Cyrib | 3 | 101 | 79.4 |
| Cetn3 | 1 | 78.4 | 85.7 |
| Cetn3 | 2 | 66.8 | 72.7 |
| Morn2 | 1 | 99.5 | 94.3 |
| Morn2 | 2 | 64.3 | 71.9 |
| Morn2 | 3 | 81 | 63.7 |
| Wfdc12 | 1 | 63.4 | 73.9 |
| Wfdc12 | 2 | 62.3 | 82.2 |
| Wfdc12 | 3 | 78 | 103 |
| Spaca7b | 1 | 86.3 | 80 |
| Spaca7b | 2 | 54.5 | 54.3 |
| Spaca7b | 3 | 42.3 | 39.4 |
| Cnih2 | 1 | 67.4 | 57.2 |
| Cnih2 | 2 | 58 | 70.9 |
| Cnih2 | 3 | 75.7 | 50.5 |
| Opn4 | 1 | 50.9 | 55.6 |
| Opn4 | 2 | 56 | 85.1 |
| Opn4 | 3 | 72.8 | 108 |
| Fkbp3 | 1 | 45.2 | 71.1 |
| Fkbp3 | 2 | 89.8 | 91.9 |
| Fkbp3 | 3 | 114 | 120 |
| Hspa12a | 1 | 48 | 50.4 |
| Hspa12a | 2 | 79 | 76.4 |
| Hspa12a | 3 | 81.8 | 88.5 |
| Psma5 | 1 | 46.3 | 65 |
| Psma5 | 2 | 5.71 | 2.84 |
| Psma5 | 3 | 46.2 | 21.6 |
| Pnpt1 | 1 | 111 | 86.8 |
| Pnpt1 | 2 | 115 | 98.4 |
| Pnpt1 | 3 | 82.3 | 94.2 |
| Casp8ap2 | 1 | 50.4 | 47.6 |
| Casp8ap2 | 2 | 65.5 | 77.2 |
| Casp8ap2 | 3 | 110 | 90.1 |
| Baz2b | 1 | 119 | 111 |
| Baz2b | 2 | 114 | 167 |
| Baz2b | 3 | 93.1 | 105 |
| Rpl23 | 1 | 82.2 | 99 |
| Rpl23 | 2 | 82.1 | 66.6 |
| Rpl23 | 3 | 62.4 | 60.5 |
| Arhgap32 | 1 | 97.6 | 78.6 |
| Arhgap32 | 2 | 83.9 | 89.5 |
| Arhgap32 | 3 | 77.4 | 64.3 |
| Ntn3 | 1 | 153 (active) | 122 |
| Ntn3 | 2 | 152 (active) | 91.4 |
| Fasl | 1 | 77 | 91.8 |
| Fasl | 2 | 56.4 | 65.5 |
| Fasl | 3 | 46.3 | 66.2 |
| Fsip1 | 1 | 84.8 | 86.8 |
| Fsip1 | 2 | 111 | 76.3 |
| Fsip1 | 3 | 107 | 56.2 |
| Ash2l | 1 | 69.3 | 65.7 |
| Ash2l | 2 | 78.1 | 69.5 |
| Snx33 | 1 | 48.3 | 31.9 |
| Snx33 | 2 | 58.7 | 36.4 |
| Snx33 | 3 | 68.1 | 60.6 |
| Lrriq4 | 1 | 94.9 | 83.5 |
| Lrriq4 | 2 | 60 | 69.3 |
| Lrriq4 | 3 | 41.8 | 62.6 |
| Or5d37 | 1 | 48.9 | 57.2 |
| Or5d37 | 2 | 65.7 | 90.2 |
| Or5d37 | 3 | 83.4 | 67.5 |
| Phkg2 | 1 | 169 (active) | 83.8 |
| Olig3 | 1 | 59.5 | 108 |
| Olig3 | 2 | 64 | 91.9 |
| Olig3 | 3 | 69.5 | 94.5 |
| Fam169b | 1 | 54.4 | 82.8 |
| Fam169b | 2 | 98.4 | 59.8 |
| Fam169b | 3 | 45.8 | 44.6 |
| Arih2 | 1 | 82.4 | 78.4 |
| Arih2 | 2 | 113 | 95.2 |
| Arih2 | 3 | 70.7 | 105 |
| Commd7 | 1 | 85.7 | 89.7 |
| Commd7 | 2 | 85.7 | 77.2 |
| Commd7 | 3 | 72.4 | 105 |
| Gosr1 | 1 | 71.2 | 75.7 |
| Gosr1 | 2 | 41.1 | 43.1 |
| Gosr1 | 3 | 80.4 | 64.8 |
